According to patent publication US20200031947A1:
No constants are given. Whether binding was seen depends on the method and setting. Some binding calls cover weakened binding; strength is not graded here.

Key:
[1] = target: T1, human GITR on cells (human) (UniProt Q9Y5U5); experiment: flow cytometry on expanded human Tregs, secondary anti-human Fc detection
T1 sequence: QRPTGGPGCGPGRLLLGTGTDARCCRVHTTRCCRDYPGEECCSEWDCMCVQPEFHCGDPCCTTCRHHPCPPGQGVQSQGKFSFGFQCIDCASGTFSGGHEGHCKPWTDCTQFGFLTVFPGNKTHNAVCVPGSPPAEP

[2] = target: T1, human GITR on cells (human); experiment: flow cytometry on activated Tregs (FIG. 3B legend)
[3] = target: T1, human GITR on cells (human); experiment: flow cytometry on in vitro expanded human Tregs; unconjugated antibody detected with A647 goat anti-human Fc gamma F(ab')2; MFI on antibody positive cells

Measured: binding

B1: h3G7 N9 (antibody, IgG1, V domains shown)
VH: QVQLVQSGAEVKKPGASVKVSCKASGYTFTGYTVSWVRQAPGQGLEWMGLINPYTGGIRYNQKFKGRVTMTRDTSTSTVYMELSSLRSEDTAVYYCARIGGYYDSMDYWGQGTLVTVSS
VL: DIQMTQSPSSLSASVGDRVTITCRASESVQPRGINFLNWYQQKPGKAPKLLIYAASNPSKGVPSRFSGSGSGTDFTLTISSLQPEDFATYYCQQALELPWTFGGGTKVEIK
binds: [1] | [2] | [3]
